Results taken from paper PMC10204293.
These are yes or no findings as the source states them, for the method shown. Binding seen in cells or lysates may run through a third protein. Some entries that bind do so weakly or less than the wild type.

Chains of the proteins cited; added tags and fusions are not shown.
UniProt Q93009: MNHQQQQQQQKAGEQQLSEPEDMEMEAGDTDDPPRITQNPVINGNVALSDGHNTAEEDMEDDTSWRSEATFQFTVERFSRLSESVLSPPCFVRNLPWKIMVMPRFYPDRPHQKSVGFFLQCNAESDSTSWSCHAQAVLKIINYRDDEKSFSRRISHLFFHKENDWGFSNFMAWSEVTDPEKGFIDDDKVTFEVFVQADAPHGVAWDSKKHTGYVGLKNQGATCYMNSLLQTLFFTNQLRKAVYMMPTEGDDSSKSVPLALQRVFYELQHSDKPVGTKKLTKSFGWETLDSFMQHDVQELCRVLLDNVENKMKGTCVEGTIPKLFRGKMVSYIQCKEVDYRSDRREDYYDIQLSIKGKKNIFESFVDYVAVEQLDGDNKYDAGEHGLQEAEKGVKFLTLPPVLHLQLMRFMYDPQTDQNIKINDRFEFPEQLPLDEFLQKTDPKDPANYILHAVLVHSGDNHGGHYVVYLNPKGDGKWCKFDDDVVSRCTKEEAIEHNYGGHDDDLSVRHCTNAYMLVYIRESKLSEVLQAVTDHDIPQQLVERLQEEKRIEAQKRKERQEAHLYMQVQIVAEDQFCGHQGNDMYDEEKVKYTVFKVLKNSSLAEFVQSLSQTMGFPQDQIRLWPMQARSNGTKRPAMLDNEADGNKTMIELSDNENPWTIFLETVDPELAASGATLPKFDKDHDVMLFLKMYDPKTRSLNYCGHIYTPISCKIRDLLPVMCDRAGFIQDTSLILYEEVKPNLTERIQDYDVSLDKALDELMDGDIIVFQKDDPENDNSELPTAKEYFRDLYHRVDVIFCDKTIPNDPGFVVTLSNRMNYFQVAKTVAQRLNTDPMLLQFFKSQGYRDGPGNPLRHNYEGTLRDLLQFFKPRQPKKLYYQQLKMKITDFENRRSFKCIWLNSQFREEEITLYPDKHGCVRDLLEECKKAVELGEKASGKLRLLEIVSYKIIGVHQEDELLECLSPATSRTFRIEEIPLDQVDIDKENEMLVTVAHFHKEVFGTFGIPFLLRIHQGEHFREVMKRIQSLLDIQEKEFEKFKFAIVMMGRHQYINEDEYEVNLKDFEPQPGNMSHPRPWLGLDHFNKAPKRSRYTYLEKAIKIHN
UniProt Q9UER7: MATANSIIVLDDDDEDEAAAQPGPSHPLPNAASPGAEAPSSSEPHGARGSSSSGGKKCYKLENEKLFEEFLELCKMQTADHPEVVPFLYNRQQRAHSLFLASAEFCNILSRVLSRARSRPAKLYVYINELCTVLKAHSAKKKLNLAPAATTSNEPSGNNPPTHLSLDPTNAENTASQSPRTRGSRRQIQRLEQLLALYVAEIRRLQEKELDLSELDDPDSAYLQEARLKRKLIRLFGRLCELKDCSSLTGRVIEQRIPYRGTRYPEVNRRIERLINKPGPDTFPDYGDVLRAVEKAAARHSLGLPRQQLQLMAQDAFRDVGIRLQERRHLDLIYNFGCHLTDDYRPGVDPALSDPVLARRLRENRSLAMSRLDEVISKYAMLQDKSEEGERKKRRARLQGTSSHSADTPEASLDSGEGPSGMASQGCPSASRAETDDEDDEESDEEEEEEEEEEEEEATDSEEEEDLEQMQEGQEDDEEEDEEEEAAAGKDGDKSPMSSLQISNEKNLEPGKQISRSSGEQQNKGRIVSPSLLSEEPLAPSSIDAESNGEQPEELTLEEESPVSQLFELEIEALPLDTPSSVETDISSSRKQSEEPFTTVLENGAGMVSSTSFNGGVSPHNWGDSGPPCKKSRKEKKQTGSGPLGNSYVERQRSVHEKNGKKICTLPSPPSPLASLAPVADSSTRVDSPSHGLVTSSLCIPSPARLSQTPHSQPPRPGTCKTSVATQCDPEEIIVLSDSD

How the values were obtained:
[1] = molecular target: herpesvirus-associated ubiquitin-specific protease (HAUSP) (human (endogenous in MCF-7)) (UniProt Q93009); experiment: co-IP; MCF-7 cells with or without S100A6 transfection, lysates in the presence of CaCl2 or EGTA; precipitation with anti-S100A6, anti-MDM2, anti-HAUSP or IgG and A/G beads overnight at 4 °C; western blot
[2] = molecular target: murine double minute 2 (MDM2) (human (endogenous in MCF-7)) (UniProt Q00987); experiment: as above

“death domain-associated protein (DAXX) (from UniProt Q9UER7 1-740)” was tested, and the binding [1] was “binds” and the binding [2] was “binds”.
